# This is one part of the list.
# Chains of the proteins cited; added tags and fusions are not shown.
# UniProt Q0JBA9, entry or part of it: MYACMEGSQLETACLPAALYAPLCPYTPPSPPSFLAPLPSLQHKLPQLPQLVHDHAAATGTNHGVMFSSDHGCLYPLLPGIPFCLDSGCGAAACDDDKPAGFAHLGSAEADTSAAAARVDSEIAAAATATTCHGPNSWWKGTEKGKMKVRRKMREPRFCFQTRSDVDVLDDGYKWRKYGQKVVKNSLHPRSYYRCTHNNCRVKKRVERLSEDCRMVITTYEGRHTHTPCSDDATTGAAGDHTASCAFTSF
# Target: OsWRKY34 (Oryza sativa, UniProt Q0JBA9 1-250)
# Assay: protein-binding microarray (RPBM); PBS, 2% BSA, 51.3 ng/ul salmon testes DNA, 50 uM zinc acetate, 200 nM TF, 25 C, 1 h; high values mean tight binding
# Details: protein: recombinant; tags: N-terminal polyhistidine and DsRed monomer fusion (pET32a); label: CyDye5-dUTP incorporated in the synthesized complementary strand; 3' TTTTT single-stranded linker to array surface; dsDNA, one strand shown
# Method in brief: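 A custom Agilent array was converted to double-stranded form by primer extension with Cy5-dUTP and blocked with 2% BSA. Protein at 200 nM in PBS with 2% BSA, salmon testes DNA and 50 µM zinc acetate was applied for 1 h at 25 °C, followed by washing. The proteins were polyhistidine–DsRed N-terminal fusions of transcription factors, expressed in E. coli BL21-CodonPlus and Ni–NTA-purified. The binding signal is per-feature fluorescence intensity (arbitrary units) from an Axon 4000B scanner.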
row,Sequence,binding signal
1,GGATTTCTACACTAATCGCTTCCAATTCCATCGCTTTTCTCGGAGTCACCTAGTGCAG,12000 fluorescence intensity (a.u.)
2,CATGGGTCATTTTGCTCTCTCCTATAACACATTACAAGTTCGGAGTCACCTAGTGCAG,9830 fluorescence intensity (a.u.)
3,CTCCGTTCATGTTTCTATCTCTCTGCTACCTCTTCTTTCACGGAGTCACCTAGTGCAG,14300 fluorescence intensity (a.u.)
4,ATTGGCTGGGGTGGGGCATTTCTAGGGGCCCCGGGCGCCTCGGAGTCACCTAGTGCAG,14500 fluorescence intensity (a.u.)
5,CATCCCCATCACTTTGATCACTTGTGTTGATCCTAATCTACGGAGTCACCTAGTGCAG,8560 fluorescence intensity (a.u.)
6,GACCGCTTCACCCGCCCAATCAAAACCGTCCATCCATCCCCGGAGTCACCTAGTGCAG,10300 fluorescence intensity (a.u.)
7,CCAAAGTCTTATTCCTTCCGGTTTCTATCCTCTTGTTGGGCGGAGTCACCTAGTGCAG,9640 fluorescence intensity (a.u.)
8,GGGTGGATTTTCTCTCCTGTCCCCGCACCTGGCCAAGACTCGGAGTCACCTAGTGCAG,10100 fluorescence intensity (a.u.)
9,AACTTTTGGACTCATAATCATACTAAACATATATATGCTACGGAGTCACCTAGTGCAG,8190 fluorescence intensity (a.u.)
10,GTAATTTAACCTGCTCTTATCTTTTTCAAGTTTGTTCATACGGAGTCACCTAGTGCAG,11500 fluorescence intensity (a.u.)
11,CGAGGGGATGGGCGGGGTTGATCGGCGCCGCGAAGGATGCCGGAGTCACCTAGTGCAG,9320 fluorescence intensity (a.u.)
12,AAAACACACCCTTACTCCTAGCAACACCTTGACTTCTCGCCGGAGTCACCTAGTGCAG,9300 fluorescence intensity (a.u.)
13,GCCCATCGCCTGACGCCGCACTTCGCCTCTGCGCCTGACTCGGAGTCACCTAGTGCAG,13400 fluorescence intensity (a.u.)
14,TTACCGTGGTTATTGTTCTCTTACCATTTATTCTTGCCATCGGAGTCACCTAGTGCAG,10000 fluorescence intensity (a.u.)
15,TCTGTACTGTACTGTACTCCTACCCTTTTTCTGGTCATTTCGGAGTCACCTAGTGCAG,9200 fluorescence intensity (a.u.)
16,GAGTGTCTATGTACTTTACTTTTTTATTTTTTTTCTTCTACGGAGTCACCTAGTGCAG,8620 fluorescence intensity (a.u.)
17,CATACCCTCAGCCACCATTCCACGTCTAACTATATAATATCGGAGTCACCTAGTGCAG,8710 fluorescence intensity (a.u.)
18,GGGAGGGGCTGCTAATTCGGTGTGATTAGTACAGTAGTTTCGGAGTCACCTAGTGCAG,10100 fluorescence intensity (a.u.)
19,GGGCCCGACGTATATATTTTTGTTTCAAATGCCACATAAGCGGAGTCACCTAGTGCAG,8030 fluorescence intensity (a.u.)
20,GATGTTCCCTCGTTATTTGTATGTCACTTAAATGGTTATACGGAGTCACCTAGTGCAG,8490 fluorescence intensity (a.u.)
21,TTTACAGCAAACTTTCTCCAAACTCCTAACTTTCCATCACCGGAGTCACCTAGTGCAG,8190 fluorescence intensity (a.u.)

# Given tab-delimited: entries from further up.
row	Sequence	binding signal
1	GGATTTCTACACTAATCGCTTCCAATTCCATCGCTTTTCTCGGAGTCACCTAGTGCAG	12000 fluorescence intensity (a.u.)
3	CTCCGTTCATGTTTCTATCTCTCTGCTACCTCTTCTTTCACGGAGTCACCTAGTGCAG	14300 fluorescence intensity (a.u.)
5	CATCCCCATCACTTTGATCACTTGTGTTGATCCTAATCTACGGAGTCACCTAGTGCAG	8560 fluorescence intensity (a.u.)
7	CCAAAGTCTTATTCCTTCCGGTTTCTATCCTCTTGTTGGGCGGAGTCACCTAGTGCAG	9640 fluorescence intensity (a.u.)
8	GGGTGGATTTTCTCTCCTGTCCCCGCACCTGGCCAAGACTCGGAGTCACCTAGTGCAG	10100 fluorescence intensity (a.u.)
9	AACTTTTGGACTCATAATCATACTAAACATATATATGCTACGGAGTCACCTAGTGCAG	8190 fluorescence intensity (a.u.)
10	GTAATTTAACCTGCTCTTATCTTTTTCAAGTTTGTTCATACGGAGTCACCTAGTGCAG	11500 fluorescence intensity (a.u.)
11	CGAGGGGATGGGCGGGGTTGATCGGCGCCGCGAAGGATGCCGGAGTCACCTAGTGCAG	9320 fluorescence intensity (a.u.)
12	AAAACACACCCTTACTCCTAGCAACACCTTGACTTCTCGCCGGAGTCACCTAGTGCAG	9300 fluorescence intensity (a.u.)
17	CATACCCTCAGCCACCATTCCACGTCTAACTATATAATATCGGAGTCACCTAGTGCAG	8710 fluorescence intensity (a.u.)
18	GGGAGGGGCTGCTAATTCGGTGTGATTAGTACAGTAGTTTCGGAGTCACCTAGTGCAG	10100 fluorescence intensity (a.u.)
20	GATGTTCCCTCGTTATTTGTATGTCACTTAAATGGTTATACGGAGTCACCTAGTGCAG	8490 fluorescence intensity (a.u.)

# Remaining list, next part

row,Sequence,binding signal
1,GATTTTTTTTCCTGTACTGTTTAACCACTCGTATTATTTACGGAGTCACCTAGTGCAG,9420 fluorescence intensity (a.u.)
2,TTTGTACTTCCGATGCTACAATTTATGGTCCATGCCTCTCCGGAGTCACCTAGTGCAG,10300 fluorescence intensity (a.u.)
3,GCAGTATCCTTGTGGTTTTCCTACAATTTTGTCTTGGTATCGGAGTCACCTAGTGCAG,9230 fluorescence intensity (a.u.)
4,TGTGCTGTTCTCTCCTTGATCCCTAGTCGTCGGATTTTGGCGGAGTCACCTAGTGCAG,11400 fluorescence intensity (a.u.)
5,GTTCACTTCCTATACATTTTGCAACACACTTTTTGAACATCGGAGTCACCTAGTGCAG,9880 fluorescence intensity (a.u.)
6,CTGGTTGTCTTCTGTAGAATTCTACTACTAGTATTATCACCGGAGTCACCTAGTGCAG,8100 fluorescence intensity (a.u.)
7,TATGCTGAAGTCGCTGCTGCTGGGGTGGGGAGTTTAAAAGCGGAGTCACCTAGTGCAG,13200 fluorescence intensity (a.u.)
8,CGAGCTCCCACCTCCTCCGTCTCCAACTCCGGCGATATCTCGGAGTCACCTAGTGCAG,8750 fluorescence intensity (a.u.)
9,AGCCCTTTTCGAGTTGAACTATTCCGACTTGAGTATCCACCGGAGTCACCTAGTGCAG,8840 fluorescence intensity (a.u.)
10,ACCCACCATACTAGTATCCCGATGATCTCCATCATCATCGCGGAGTCACCTAGTGCAG,10000 fluorescence intensity (a.u.)
11,TCTTCACCGGCAAGCCACATTTCACCTCGTCCAGCAACCTCGGAGTCACCTAGTGCAG,11000 fluorescence intensity (a.u.)
12,AAATCACCACAACCCTGAGATCCATCACCAAGATGCTAAACGGAGTCACCTAGTGCAG,8200 fluorescence intensity (a.u.)
13,CCCGTCTTGCCTTGTCTCCGGGTGGTGGAGCGCCTCTTCCCGGAGTCACCTAGTGCAG,8980 fluorescence intensity (a.u.)
14,ATAGGCTTCACCTTTTTTTATTTTTACCTTTATTACTTACCGGAGTCACCTAGTGCAG,9270 fluorescence intensity (a.u.)
15,ACCATCAGCTGGGTCCTCGTATCATAGTATGCCGTACGGCCGGAGTCACCTAGTGCAG,8560 fluorescence intensity (a.u.)
16,TGTTGTTGGTTTGGGGATTTAATATGGATTGGAGCAGAAGCGGAGTCACCTAGTGCAG,8240 fluorescence intensity (a.u.)
17,CATATTCCTTTCTTGATTCTGTCCCGTCGCCCCACAAGTTCGGAGTCACCTAGTGCAG,8250 fluorescence intensity (a.u.)
18,TTTCGGTTTCCCTTTCTTCATTCTTCTTCTTCTCATCCCACGGAGTCACCTAGTGCAG,8210 fluorescence intensity (a.u.)
19,GGACGTACATATCCCTGTATCAATGCGCCTTTCTTGACGACGGAGTCACCTAGTGCAG,10200 fluorescence intensity (a.u.)
20,CTTAATTTGCTGGTTGGTTTATCAGATACATCCAAATTCACGGAGTCACCTAGTGCAG,8250 fluorescence intensity (a.u.)
21,ATATATATATATGATGTGCGCCGCGTTGTGTTTCGCTTTTCGGAGTCACCTAGTGCAG,8140 fluorescence intensity (a.u.)

row,Sequence,binding signal
1,AACCTAACCACCAGTTGAGCTATTCTCACTTTGGTATTATCGGAGTCACCTAGTGCAG,8320 fluorescence intensity (a.u.)
2,AAGTTTGGCTCTGCGTGTCTCTAAAAATTTTCAGTCTCCTCGGAGTCACCTAGTGCAG,8190 fluorescence intensity (a.u.)
3,ATCTTTCGCCATACCTCCGCCGTAAAAGGACAGGTTACAACGGAGTCACCTAGTGCAG,9160 fluorescence intensity (a.u.)
4,AACACATCACAAGTCAATGTTTCTAACTTTAACTTTATCGCGGAGTCACCTAGTGCAG,8210 fluorescence intensity (a.u.)
5,TAGTGGGTGTGGGTGGGTGGCAGGCAGAGGAGGAGCCAAGCGGAGTCACCTAGTGCAG,11100 fluorescence intensity (a.u.)
6,TCCGTTTCCCATTTCGTCGCGACCCAAAACCCTCACCTCCCGGAGTCACCTAGTGCAG,9520 fluorescence intensity (a.u.)
7,CGTTGACTTTTTTTCAACGTTTAATAATTTATCTTATTCACGGAGTCACCTAGTGCAG,12900 fluorescence intensity (a.u.)
8,CGCATGCAACGTTCGGTTCTCTCGGTGCTTATCCGTAGTGCGGAGTCACCTAGTGCAG,8770 fluorescence intensity (a.u.)
9,CACCTTACTTTACCATTTTCCATTGCGGTTACTCTTATCTCGGAGTCACCTAGTGCAG,15400 fluorescence intensity (a.u.)
10,TTTTTTTGTGTTTCCTTCGCTTCGAATCCTTGAAATCTCCCGGAGTCACCTAGTGCAG,8780 fluorescence intensity (a.u.)
11,ATACAGTACAGGATCCTCTAGCTTCTCCACTTCTGACTTTCGGAGTCACCTAGTGCAG,10200 fluorescence intensity (a.u.)
12,TACAGGTGTTTTCATCAACCTTATCTCTTTTTTCTTCATGCGGAGTCACCTAGTGCAG,8190 fluorescence intensity (a.u.)
13,CTCGGCACTATCCTCGGTCTCTGTGCTTATTGAGCCCATTCGGAGTCACCTAGTGCAG,8910 fluorescence intensity (a.u.)
14,ATTTGGAGGTAGGAGGAGAGGTGGGGAAGGAGATTGCCAACGGAGTCACCTAGTGCAG,8300 fluorescence intensity (a.u.)
15,CAGTATAGCAACACTTCTCTAGGCATTACTACTACATTAACGGAGTCACCTAGTGCAG,8960 fluorescence intensity (a.u.)
16,TCTTGACAATGATACGTCTCTCTTCTTTTTTTCTCATGCCCGGAGTCACCTAGTGCAG,8500 fluorescence intensity (a.u.)
17,AAATGCTATAGTTGTATATTGGCTTTGTTTAGTTCCATACCGGAGTCACCTAGTGCAG,8090 fluorescence intensity (a.u.)
18,CGCGTCTATTTTTTAGTTCTTTCTTTCCCATGGTGCTTCTCGGAGTCACCTAGTGCAG,9820 fluorescence intensity (a.u.)
19,TAATTCGGGGTTTGAAATTTTTTGTTTTTGGCGACTTTCACGGAGTCACCTAGTGCAG,10400 fluorescence intensity (a.u.)
20,GGTGGGGATGGTGGCGAGCTCCCGCTACGCCGCCTGCACGCGGAGTCACCTAGTGCAG,8270 fluorescence intensity (a.u.)
21,TCAGTTTTTCTAGTTCATAGGTCAGTAAATCATTTGCTATCGGAGTCACCTAGTGCAG,8960 fluorescence intensity (a.u.)

row,Sequence,binding signal
1,GGTCTGGATATTCTTGTTGGTATTGTTCTCCCAATTAATACGGAGTCACCTAGTGCAG,12000 fluorescence intensity (a.u.)
2,CACCATTGACTTTTTAGCATATGTTTGACCGTTCGTCTTACGGAGTCACCTAGTGCAG,18200 fluorescence intensity (a.u.)
3,GATATTTTTCTAGTTATATACTATATTATATAATATACCCCGGAGTCACCTAGTGCAG,8030 fluorescence intensity (a.u.)
4,TTTTTCTTCTGGGATCTTCTTAAATACTTGTTGCATATAACGGAGTCACCTAGTGCAG,9490 fluorescence intensity (a.u.)
5,TCCGTCAGCGCTTCCATCTTCCACTCCACATCACGATCGCCGGAGTCACCTAGTGCAG,10400 fluorescence intensity (a.u.)
6,ATTCTTTGCTTCTTGGTGCTTCCATGTCACCCTACTTTATCGGAGTCACCTAGTGCAG,9010 fluorescence intensity (a.u.)
7,ATCATAATTATCGTTCAGTCTTTTTCATGTTTTTGTTCCTCGGAGTCACCTAGTGCAG,11500 fluorescence intensity (a.u.)
8,GCTGTTGTTTTTTTGTCCCATGTCTCTGCACAGAGCCACACGGAGTCACCTAGTGCAG,9510 fluorescence intensity (a.u.)
9,ACTCCGTTATATCATCGACCGTATTCGAGCTATCTCCTATCGGAGTCACCTAGTGCAG,13700 fluorescence intensity (a.u.)
10,TAGGAGGGAAAGAGAGGGTGGGTATTTTTCCGAGTAGTTCCGGAGTCACCTAGTGCAG,10100 fluorescence intensity (a.u.)
11,GCCCAGTTTTTGCGCGCGCGCCGCTGAATCCTCAAAAATGCGGAGTCACCTAGTGCAG,8380 fluorescence intensity (a.u.)
12,GAAAGGCATCAAAGCTACATGTCAAATCAGCTCTAACCGTCGGAGTCACCTAGTGCAG,8780 fluorescence intensity (a.u.)
13,GCGGTCTATGCTATCACCAAGTAGTAGTTACATCTCATCTCGGAGTCACCTAGTGCAG,8580 fluorescence intensity (a.u.)
14,GTTTGTGTGCTTGGACTCATGTTTGTTATTGTCCATTTTACGGAGTCACCTAGTGCAG,9550 fluorescence intensity (a.u.)
15,CAATCTAGAGCCTGGGTATTGTGTTGTTCACTCCATTCTTCGGAGTCACCTAGTGCAG,8130 fluorescence intensity (a.u.)
16,ATCCTTCATCAGTGGTTGTGAATGACTGACTTTTTCAATCCGGAGTCACCTAGTGCAG,8520 fluorescence intensity (a.u.)
17,GGGAGGTCTTGGAGGTCGCAGTCAGGTGGTGATGGAGGGTCGGAGTCACCTAGTGCAG,8750 fluorescence intensity (a.u.)
18,CTCTGTTCGTTTATTCCCACAGTGGCTACCAGTAGGTAAACGGAGTCACCTAGTGCAG,8130 fluorescence intensity (a.u.)
19,GTCCGCATCCAATTCCCGGGCCATTCGAAATCCCCAACACCGGAGTCACCTAGTGCAG,10200 fluorescence intensity (a.u.)
20,CCACCTCGCTTACCGACGCATCGCGGCGCCGCTTCAAAACCGGAGTCACCTAGTGCAG,8520 fluorescence intensity (a.u.)
21,GTTTGTCTCGAATACTCTCCTCTCTCAAACACTTCCGTATCGGAGTCACCTAGTGCAG,8330 fluorescence intensity (a.u.)
